The other results are listed elsewhere or left out. Further columns of the screen follow, without active or inactive calls. Most of these compounds were active or inconclusive in the main read-out, so they are no random draw. Potencies come from curve fits of mixed quality, noted in brackets.
Experiment: qHTS Assay to Find Inhibitors of Chronic Active B-Cell Receptor Signaling
Conditions: ABC-DLBCL IkBa-CBG/CBR reporter, luminescence ratio (green luciferase fused to IkBa over red control in TMD8 lymphoma cells), 4 h
How it was run: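 Doxycycline induced both beetle luciferases in TMD8 lymphoma cells; IKK-driven degradation limits the IkappaBalpha-fused green signal, while red luminescence normalises for cell number and nonspecific effects. Compounds tested up to 46 uM, 4 hrs.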

[1] = measured here: CBR red luminescence, cell number
[2] = measured here: IkBa-CBG green luminescence

SMILES | AC50 [1] | AC50 [2]
CCOc1ccc(C(=O)Nc2cccc(C)n2)cc1 | 10 µM [falling, partial curve] | 
O=C(O)c1c(CNCc2cccc(F)c2)c2ccccc2n1Cc1ccccc1 | 22.4 µM [falling, partial curve] | 
CC1(C)Cc2c(sc(NC(=O)c3ccccc3)c2C(=O)O)CO1 | 0.224 µM [falling, full curve, poor fit] | 
CC(=O)NC(=O)c1ccc(-c2ccc(Cl)cc2)o1 | 29.1 µM [rising, single point] | 
Cc1cccc(-n2ncc3c(N4CCC(C)CC4)ncnc32)c1 | 0.411 µM [rising, partial curve, poor fit] | 
COc1cccc(C(=O)OCC(=O)c2ccc(Br)s2)c1OC | 6.51 µM [rising, partial curve, poor fit] | 
Cc1cc(NC(=O)CSc2nc(=O)cc(N)n2-c2ccc(Cl)cc2)no1 | 0.562 µM [rising, full curve] | 
CCN(CC)CCCNC(=O)c1cc2c(=O)[nH]c3ccc(C)cc3c2s1 | 20 µM [falling, single point] | 
N#C/C(=C/c1cccc(C(F)(F)F)c1)c1nc(CCN2C(=O)c3ccccc3C2=O)cs1 | 3.16 µM [falling, partial curve, poor fit] | 
CCn1cc(C(=O)N[C@@H](C)C(=O)NCCCO)c(=O)c2cc3c(cc21)OCO3 | 12.6 µM [falling, partial curve, poor fit] | 
CN(Cc1ccccc1)CC(O)COc1ccc(CNCc2ccc(Cl)s2)cc1 (configuration not stated) | 2.51 µM [falling, partial curve, poor fit] | 
c1nnnn1C12CC3CC(CC(C3)C1)C2 | 25.9 µM [rising, single point] | 
CN(CCOc1ccccc1)CC(=O)Nc1ccc(S(=O)(=O)N2CCCC2)cc1 | 0.1 µM [rising, full curve, poor fit] | 
Cc1cc(C)n2nc(C(=O)OCC(=O)c3cc(C)n(CC4CCCO4)c3C)nc2n1 (configuration not stated) | 6.31 µM [rising, single point] | 
Cc1ccccc1C(=O)N1CCC(C(=O)Nc2ccc(S(=O)(=O)N3CCCC3)cc2)CC1 | 0.00461 µM [falling, full curve, poor fit] | 
COc1cc(OC)cc(C(=O)N[C@H](C(=O)OCC(=O)Nc2ccc(F)c(F)c2F)C(C)C)c1 | 35.5 µM [falling, single point] | 
CC(O)Cn1cnc2c1c(=O)n(C)c(=O)n2C (configuration not stated) | 0.92 µM [falling, partial curve, poor fit] | 
C/C(=N/NC(=O)c1sc(NS(=O)(=O)c2ccccc2)nc1C)c1sc(N)nc1C | 14.1 µM [falling, single point] | 
COc1ccc(Cn2c(CCC(=O)Nc3ccc(CC#N)cc3)nc3cccnc32)cc1 | 10 µM [rising, partial curve, poor fit] | 
O=C(c1cccnc1)N1CCN(Cc2cccc(F)c2)CC1 | 2.91 µM [falling, single point] | 

SMILES | AC50 [1] | AC50 [2]
CCSc1nc2c(c(-c3ccc(C)o3)c1C#N)CCCC2 |  | 16.4 µM [rising, partial curve, poor fit]
Cc1cc(-c2nc(C)c(C(=O)NNS(=O)(=O)c3ccc(Cl)cc3Cl)s2)no1 | 7.94 µM [falling, partial curve] | 
COc1ccc(-c2cc(C(=O)N3CCN(Cc4ccccc4)CC3)no2)cc1OC | 1.84 µM [falling, partial curve, poor fit] | 
COc1ccccc1OCC(=O)NCCC1=CCCCC1 | 2.91 µM [rising, full curve] | 
C/C(=C\C(=O)c1ccccc1)Nc1ccc(Br)c(Cl)c1 | 6.31 µM [rising, partial curve] | 
O=C(N/N=C/c1cccnc1)c1ccc2ccccc2c1O | 10 µM [falling, partial curve, poor fit] | 
Cc1ccc(C(=O)N/N=C\c2ccccc2[N+](=O)[O-])cn1 | 11.2 µM [falling, partial curve] | 
O=C(Nc1ccc2c(c1)C(=O)NC2=O)c1ccccc1 | 14.1 µM [falling, partial curve] | 
N#Cc1cc2c(nc1SCc1ccc(Cl)nc1)CCCCC2 | 2.82 µM [rising, partial curve, poor fit] | 
Cc1ccc(S(=O)(=O)n2ccc(OC(=O)c3cccs3)n2)cc1 | 14.1 µM [rising, single point] | 35.5 µM [falling, partial curve, poor fit]
COc1ccc(C(=O)OCC(=O)c2ccc(F)cc2)cc1OC | 20.6 µM [falling, single point] | 
CCOc1ccccc1NC(=O)CCc1ccc(C)o1 | 6.51 µM [falling, partial curve, poor fit] | 
Oc1ccc(Br)cc1/C=N/N1CCCCC1 | 4.11 µM [rising, full curve] | 
CC[C@]12c3[nH]c4cc(CCC(=O)N(C)C)ccc4c3CCN1C(=O)[C@@H](CC(=O)NCc1ccc(OC)c(OC)c1)C[C@@H]2C(=O)N1CCN(C(=O)c2ccco2)CC1 | 16.4 µM [rising, partial curve, poor fit] | 13 µM [falling, partial curve, poor fit]
CS(=O)(=O)Nc1cccc(C2=NN(S(=O)(=O)c3ccc(F)cc3)C(c3cccs3)C2)c1 (configuration not stated) | 29.1 µM [falling, single point] | 
CCCC(=O)Nc1nc(C)c(-c2csc(Nc3ccc(Cl)cc3)n2)s1 | 0.501 µM [rising, full curve, poor fit] | 
CCN(CC(=O)Nc1sc2c(c1C#N)CCC(C)C2)CC(=O)NC1CCS(=O)(=O)C1 (configuration not stated) | 1.12 µM [rising, partial curve] | 
Cc1sc2nc3c(C(=O)N4CCCC4)cc(C(=O)c4ccccc4O)cn3c(=O)c2c1C | 8.91 µM [falling, partial curve, poor fit] | 14.1 µM [rising, partial curve, poor fit]
COc1ccccc1NC(=O)Nc1ccc(C)cn1 | 11.2 µM [falling, single point] | 

A draw from above in order of length of the SMILES, low to high.
SMILES | AC50 [1] | AC50 [2]
COc1ccccc1NC(=O)Nc1ccc(C)cn1 | 11.2 µM [falling, single point] | 
N#Cc1cc2c(nc1SCc1ccc(Cl)nc1)CCCCC2 | 2.82 µM [rising, partial curve, poor fit] | 
CC[C@]12c3[nH]c4cc(CCC(=O)N(C)C)ccc4c3CCN1C(=O)[C@@H](CC(=O)NCc1ccc(OC)c(OC)c1)C[C@@H]2C(=O)N1CCN(C(=O)c2ccco2)CC1 | 16.4 µM [rising, partial curve, poor fit] | 13 µM [falling, partial curve, poor fit]

Reference: PubChem BioAssay AID493014 (National Center for Advancing Translational Sciences (NCATS), 2011)
